Measurements published in PMC553973.
No constants are given. Whether binding was seen depends on the method and setting. For some of these results: Binding seen in cells or lysates may run through a third protein. Some binding calls cover weakened binding; strength is not graded here.

The chains behind the UniProt entries cited, without tags or fusion partners. Where a name states a change or a piece, a line headed by the entry shows the natural chain unless it says otherwise. Residues count along the entry.
UniProt P04004, residues 20-478: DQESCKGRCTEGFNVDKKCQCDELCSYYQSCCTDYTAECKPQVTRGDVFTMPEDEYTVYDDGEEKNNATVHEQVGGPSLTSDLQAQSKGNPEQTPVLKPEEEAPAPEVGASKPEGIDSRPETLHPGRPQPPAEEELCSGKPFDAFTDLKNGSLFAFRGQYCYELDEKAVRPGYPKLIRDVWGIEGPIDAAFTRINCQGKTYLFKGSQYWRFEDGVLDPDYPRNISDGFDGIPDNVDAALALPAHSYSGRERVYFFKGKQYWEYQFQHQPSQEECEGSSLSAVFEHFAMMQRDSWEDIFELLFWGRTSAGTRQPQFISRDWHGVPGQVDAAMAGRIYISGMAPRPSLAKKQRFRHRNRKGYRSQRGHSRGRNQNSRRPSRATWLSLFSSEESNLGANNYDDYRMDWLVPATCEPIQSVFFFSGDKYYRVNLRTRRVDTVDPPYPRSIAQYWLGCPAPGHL
UniProt P17301: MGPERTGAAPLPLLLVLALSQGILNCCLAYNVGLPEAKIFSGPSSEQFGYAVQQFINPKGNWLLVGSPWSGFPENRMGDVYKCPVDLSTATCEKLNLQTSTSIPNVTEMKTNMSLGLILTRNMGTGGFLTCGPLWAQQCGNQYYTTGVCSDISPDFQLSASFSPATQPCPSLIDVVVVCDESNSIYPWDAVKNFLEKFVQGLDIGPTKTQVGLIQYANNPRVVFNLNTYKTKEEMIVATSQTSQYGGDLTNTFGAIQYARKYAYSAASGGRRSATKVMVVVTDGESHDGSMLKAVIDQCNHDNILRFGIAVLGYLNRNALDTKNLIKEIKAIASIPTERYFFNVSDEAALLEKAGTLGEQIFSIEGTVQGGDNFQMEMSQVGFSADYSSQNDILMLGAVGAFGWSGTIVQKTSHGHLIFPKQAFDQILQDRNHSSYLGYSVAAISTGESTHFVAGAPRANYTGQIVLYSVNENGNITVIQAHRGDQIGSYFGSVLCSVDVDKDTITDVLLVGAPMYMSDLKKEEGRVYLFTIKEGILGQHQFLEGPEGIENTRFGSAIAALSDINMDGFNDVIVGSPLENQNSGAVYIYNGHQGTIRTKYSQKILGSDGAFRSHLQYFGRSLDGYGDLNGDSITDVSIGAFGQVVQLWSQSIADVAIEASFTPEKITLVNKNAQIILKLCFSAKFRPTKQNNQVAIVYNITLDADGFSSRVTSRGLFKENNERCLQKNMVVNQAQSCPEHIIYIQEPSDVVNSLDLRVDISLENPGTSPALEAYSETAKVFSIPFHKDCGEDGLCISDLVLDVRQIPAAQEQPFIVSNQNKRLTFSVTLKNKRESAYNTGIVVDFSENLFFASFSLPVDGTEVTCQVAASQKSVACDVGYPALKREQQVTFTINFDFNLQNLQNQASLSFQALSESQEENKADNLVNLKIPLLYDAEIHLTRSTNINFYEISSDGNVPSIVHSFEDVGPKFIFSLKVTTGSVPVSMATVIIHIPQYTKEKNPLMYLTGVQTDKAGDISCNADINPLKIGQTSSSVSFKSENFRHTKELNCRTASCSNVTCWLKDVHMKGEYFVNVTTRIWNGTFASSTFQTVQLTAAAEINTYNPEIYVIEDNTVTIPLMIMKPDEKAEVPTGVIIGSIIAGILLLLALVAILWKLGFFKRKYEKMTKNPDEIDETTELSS
UniProt P05556: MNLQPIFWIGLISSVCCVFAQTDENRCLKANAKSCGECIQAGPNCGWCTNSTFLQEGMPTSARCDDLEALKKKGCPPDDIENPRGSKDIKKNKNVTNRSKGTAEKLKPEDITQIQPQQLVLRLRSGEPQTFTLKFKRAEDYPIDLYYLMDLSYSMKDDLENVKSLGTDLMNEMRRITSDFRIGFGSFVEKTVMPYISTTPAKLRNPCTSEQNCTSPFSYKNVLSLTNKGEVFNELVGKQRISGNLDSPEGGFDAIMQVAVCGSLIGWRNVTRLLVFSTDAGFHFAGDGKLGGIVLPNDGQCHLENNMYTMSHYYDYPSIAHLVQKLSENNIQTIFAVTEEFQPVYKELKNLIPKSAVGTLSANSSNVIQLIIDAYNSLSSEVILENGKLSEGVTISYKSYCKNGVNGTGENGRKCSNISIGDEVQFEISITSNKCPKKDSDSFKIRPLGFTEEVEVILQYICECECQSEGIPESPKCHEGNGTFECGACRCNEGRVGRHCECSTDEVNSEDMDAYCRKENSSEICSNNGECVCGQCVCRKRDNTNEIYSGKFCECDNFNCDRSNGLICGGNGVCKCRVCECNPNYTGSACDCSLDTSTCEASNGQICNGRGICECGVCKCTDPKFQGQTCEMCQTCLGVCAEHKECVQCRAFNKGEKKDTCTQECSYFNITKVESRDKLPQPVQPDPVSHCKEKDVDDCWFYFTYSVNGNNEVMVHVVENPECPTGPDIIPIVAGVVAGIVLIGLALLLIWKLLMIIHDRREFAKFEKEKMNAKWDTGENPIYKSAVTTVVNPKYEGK
UniProt P14210, residues 32-728: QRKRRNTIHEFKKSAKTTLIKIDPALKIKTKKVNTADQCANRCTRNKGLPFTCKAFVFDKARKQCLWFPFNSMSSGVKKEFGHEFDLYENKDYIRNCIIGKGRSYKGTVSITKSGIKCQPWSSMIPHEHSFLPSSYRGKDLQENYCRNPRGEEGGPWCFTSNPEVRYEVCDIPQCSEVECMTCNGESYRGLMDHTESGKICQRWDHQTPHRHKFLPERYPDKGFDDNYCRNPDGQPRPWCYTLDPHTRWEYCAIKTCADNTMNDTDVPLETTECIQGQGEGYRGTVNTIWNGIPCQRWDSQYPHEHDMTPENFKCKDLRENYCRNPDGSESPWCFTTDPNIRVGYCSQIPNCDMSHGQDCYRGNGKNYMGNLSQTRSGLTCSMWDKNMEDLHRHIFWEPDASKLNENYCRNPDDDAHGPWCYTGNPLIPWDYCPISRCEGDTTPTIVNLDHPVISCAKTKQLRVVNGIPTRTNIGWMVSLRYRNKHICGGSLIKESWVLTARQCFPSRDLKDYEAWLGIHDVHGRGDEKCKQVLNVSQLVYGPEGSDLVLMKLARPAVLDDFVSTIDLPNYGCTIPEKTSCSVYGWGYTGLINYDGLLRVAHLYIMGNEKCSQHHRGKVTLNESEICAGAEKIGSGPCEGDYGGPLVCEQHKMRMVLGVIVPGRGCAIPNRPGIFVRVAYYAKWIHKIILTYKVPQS
UniProt P08581, residues 25-1390: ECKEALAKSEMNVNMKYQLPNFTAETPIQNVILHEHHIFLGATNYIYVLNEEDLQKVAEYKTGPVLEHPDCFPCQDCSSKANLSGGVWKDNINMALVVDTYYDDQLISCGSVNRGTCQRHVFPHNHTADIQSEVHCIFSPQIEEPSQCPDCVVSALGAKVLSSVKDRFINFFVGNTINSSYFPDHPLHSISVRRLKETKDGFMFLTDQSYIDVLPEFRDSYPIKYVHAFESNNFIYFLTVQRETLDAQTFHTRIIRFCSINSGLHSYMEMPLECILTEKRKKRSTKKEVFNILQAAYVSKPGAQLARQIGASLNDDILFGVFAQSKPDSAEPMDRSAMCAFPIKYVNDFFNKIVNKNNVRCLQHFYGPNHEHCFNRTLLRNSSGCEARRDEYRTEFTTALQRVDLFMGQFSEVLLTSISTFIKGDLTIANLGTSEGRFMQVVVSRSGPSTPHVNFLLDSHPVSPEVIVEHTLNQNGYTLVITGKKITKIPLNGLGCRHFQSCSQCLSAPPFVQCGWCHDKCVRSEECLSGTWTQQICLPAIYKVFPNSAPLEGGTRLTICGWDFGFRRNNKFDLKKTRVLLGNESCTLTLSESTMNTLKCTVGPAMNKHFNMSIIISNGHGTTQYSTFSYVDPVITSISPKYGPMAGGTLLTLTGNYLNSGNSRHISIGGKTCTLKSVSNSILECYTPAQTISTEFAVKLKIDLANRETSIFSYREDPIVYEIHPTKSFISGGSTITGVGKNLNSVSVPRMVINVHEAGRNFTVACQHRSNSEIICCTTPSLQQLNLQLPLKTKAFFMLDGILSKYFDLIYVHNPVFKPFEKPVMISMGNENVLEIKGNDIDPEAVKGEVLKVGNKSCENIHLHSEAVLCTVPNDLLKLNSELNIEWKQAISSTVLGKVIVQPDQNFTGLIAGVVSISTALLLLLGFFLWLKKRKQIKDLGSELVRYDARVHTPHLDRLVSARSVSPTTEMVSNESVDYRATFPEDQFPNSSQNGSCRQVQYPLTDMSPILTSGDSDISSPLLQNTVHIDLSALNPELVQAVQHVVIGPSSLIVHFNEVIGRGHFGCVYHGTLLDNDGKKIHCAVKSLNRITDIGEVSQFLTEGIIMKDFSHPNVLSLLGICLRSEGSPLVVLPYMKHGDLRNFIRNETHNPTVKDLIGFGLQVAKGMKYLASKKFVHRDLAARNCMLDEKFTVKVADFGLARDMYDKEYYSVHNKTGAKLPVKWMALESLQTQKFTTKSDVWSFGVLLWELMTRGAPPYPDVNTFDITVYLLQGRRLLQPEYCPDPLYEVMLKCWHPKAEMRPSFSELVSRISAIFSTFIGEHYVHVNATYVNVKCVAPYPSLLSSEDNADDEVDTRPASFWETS

What was measured:
vitronectin = vitronectin (UniProt P04004); experiment: radioligand binding; solid phase assay: ECM proteins, FN proteolytic fragments or BSA (10 μg/ml) coated on plastic microtitre wells; 125I-HGF in PBS with 2% BSA, 30 min at room temperature, washed, counted in a γ-counter; both purified
[1] = molecular target: integrin α2β1 (human (endogenous in HMVEC)) (UniProt P17301+P05556); experiment: co-IP; HMVEC seeded on collagen-1, FN or VN coated wells and stimulated with HGF for 60 min at room temperature; lysates immunoprecipitated with antibodies to α2β1, α5β1 or αvβ3 respectively; blot for Met
[2] = molecular target: vitronectin in platelet supernatants (human (endogenous in platelets)) (UniProt P04004); experiment: co-IP; supernatants (100,000 x g) of washed human platelets stimulated with thrombin 1 U/ml, immunoprecipitated with monoclonal antibodies to FN or VN or an isotype-matched control; blot for HGF
[3] = molecular target: fibronectin in platelet supernatants (human (endogenous in platelets)) (UniProt P02751); experiment: as above

125I-labelled hepatocyte growth factor (from UniProt P14210 32-728) (ligand)
binding (vitronectin): binds

Met receptor tyrosine kinase (from UniProt P08581 25-1390)
binding [1]: binds weakly

hepatocyte growth factor released from platelets (from UniProt P14210 32-728) (ligand)
binding [2]: binds | binding [3]: binds
